# Assay results reported in PubChem BioAssay AID1487 (National Center for Advancing Translational Sciences (NCATS), 2009).
# Where “and” joins values, the source holds several entries; their conditions need not be identical. Equal entries are not always repeated. This is one part of the list. The main result of the screen is listed elsewhere. These columns were measured beside it and carry no call. Compounds called inactive in the main read-out are mostly missing here. Potencies come from curve fits of mixed quality, noted in brackets.
# Assay: qHTS Assay for Modulators of Lamin A Splicing
# Conditions: HeLa LMNA splicing GFP/RFP minigene ratio, 48 h
# Outline: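 S3 HeLa stable clones carrying a lamin A-EGFP splicing minigene plus DsRed2 were seeded at 600 cells/well in Opti-MEM with 2% FBS, pin-dosed and incubated 48 h at 37°C. Acumen cytometry (488 nm) gave the GFP/RFP total-intensity ratio.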
# [1] = measured here: GFP splicing reporter channel
# [2] = measured here: RFP viability control channel
SMILES,AC50 [1],AC50 [2]
NNc1ccccc1,"0.00501 µM [falling, full curve, poor fit]","0.0316 µM [falling, full curve, poor fit]"
Oc1c(Br)cc(Br)cc1Br,"1.41 µM [falling, partial curve, poor fit]","5.62 µM [rising, single point]"
CCC(=O)O[C@@](Cc1ccccc1)(c1ccccc1)[C@@H](C)CN(C)C,"0.355 µM [falling, full curve, poor fit]","8.91 µM [falling, single point]"
C[C@@]12CC(=O)[C@H]3[C@@H](CCC4=CC(=O)CC[C@]43C)[C@H]1CCC2=O,"0.316 µM [falling, full curve, poor fit]","0.398 µM [falling, full curve]"
O=C(Nc1nc2c(Cl)cccc2s1)c1ccc(S(=O)(=O)N2CCc3ccccc32)cc1,–,"12.6 µM [rising, single point]"
C[N+](C)(C)CCCCCCCCCC[N+](C)(C)C,"8.91 nM [falling, full curve, poor fit] and 141 nM [falling, full curve, poor fit]","7.94 µM [falling, single point]"
C=C(C)c1cc2cc(C(C)=O)c(O)cc2o1,–,"14.1 µM [rising, single point]"
COC(=O)c1ccc(NC(=O)c2cccn(Cc3ccccc3C)c2=O)cc1,"0.141 µM [falling, full curve, poor fit]","35.5 µM [falling, partial curve, poor fit]"
CCCOP(=O)(OCCC)c1nc(-c2ccccc2)oc1NCc1ccccc1,"17.8 µM [rising, single point]","25.1 µM [rising, single point]"
C[C@H](O)[C@H]1CC[C@H]2[C@@H]3CCC4=CC(=O)CC[C@]4(C)[C@H]3CC[C@]12C,"25.1 µM [rising, partial curve, poor fit]","1.26 µM [falling, partial curve, poor fit]"
O=C1NCN(c2ccccc2)C12CCN(CC1COc3ccccc3O1)CC2 (stereo not drawn),–,"35.5 µM [falling, single point]"
Cc1sc2c(c1C)C(c1cccs1)=NCC(=O)N2CC(=O)NCc1cccs1,–,"12.6 µM [rising, single point]"
Cc1nn(Cc2ccccc2Cl)c(C)c1C(=O)OCC(=O)NC1CCS(=O)(=O)C1 (stereo not drawn),–,"5.01 µM [rising, single point]"
CCN(CC)S(=O)(=O)c1cc(NC(=O)C(C)N2CC=C(c3ccccc3)CC2)ccc1C (stereo not drawn),"10 µM [rising, partial curve, poor fit]","12.6 µM [rising, partial curve]"
O=C1CN=C(c2ccccc2F)c2cc(Cl)ccc2N1,"35.5 µM [falling, single point]","35.5 µM [falling, single point]"
Clc1ccc(CO/N=C(\Cn2ccnc2)c2ccc(Cl)cc2Cl)c(Cl)c1,"12.6 µM [rising, partial curve, poor fit]","12.6 µM [rising, partial curve, poor fit]"
S=c1[nH]c2cc(Br)cnc2[nH]1,–,"0.224 µM [rising, full curve]"
C=CCn1c(O)c(/C=C2\C=Nc3ccccc32)c(=O)[nH]c1=O,–,"12.6 µM [falling, partial curve, poor fit]"
CC(CCc1ccccc1)NC(C)C(O)c1ccc(O)cc1 (stereo not drawn),–,"31.6 µM [falling, single point]"
Oc1cc2c(cc1CN1CCN(c3ccccc3)CC1)CCC2,"20 µM [rising, single point]","35.5 µM [rising, single point]"
Cc1cccc(C)c1Oc1nc(-c2ccccc2)ncc1S(=O)(=O)c1ccccc1,–,"14.1 µM [rising, partial curve]"
CC[C@@H]1CN2CCc3cc(OC)c(OC)cc3[C@H]2C[C@@H]1C[C@@H]1NCCc2cc(O)c(OC)cc21,"0.0447 µM [falling, full curve]","0.0398 µM [falling, full curve]"
C[N+]1([O-])[C@@H]2CC(OC(=O)[C@@H](CO)c3ccccc3)C[C@@H]1[C@H]1O[C@H]12 (stereo partly drawn),"0.000398 µM [falling, full curve, poor fit]","0.000398 µM [falling, full curve, poor fit]"
Cc1c(C(=O)c2cccc3ccccc23)c2cccc3c2n1[C@H](CN1CCOCC1)CO3,"11.2 µM [falling, partial curve]","11.2 µM [falling, partial curve]"
COP(=S)(OC)Oc1ccc([N+](=O)[O-])cc1,"2.82 µM [falling, full curve]","3.55 µM [falling, full curve]"

# Part of the list above in order of length of the SMILES, ascending.
SMILES,AC50 [1],AC50 [2]
C=C(C)c1cc2cc(C(C)=O)c(O)cc2o1,–,"14.1 µM [rising, single point]"
O=C1CN=C(c2ccccc2F)c2cc(Cl)ccc2N1,"35.5 µM [falling, single point]","35.5 µM [falling, single point]"
COC(=O)c1ccc(NC(=O)c2cccn(Cc3ccccc3C)c2=O)cc1,"0.141 µM [falling, full curve, poor fit]","35.5 µM [falling, partial curve, poor fit]"
Cc1c(C(=O)c2cccc3ccccc23)c2cccc3c2n1[C@H](CN1CCOCC1)CO3,"11.2 µM [falling, partial curve]","11.2 µM [falling, partial curve]"

# More results follow.

SMILES,AC50 [1],AC50 [2]
O=C(CN1CCCC1)Nc1ccc(Cl)cc1C(=O)c1ccccc1,"0.282 µM [falling, full curve, poor fit]","0.141 µM [falling, full curve]"
CCOP(=O)(OCC)C(Nc1cccc(C)c1)c1ccc(F)cc1 (stereo not drawn),"0.355 µM [falling, partial curve, poor fit]","0.316 µM [falling, partial curve]"
NC(=NCCC[C@H](N)C(=O)O)N[N+](=O)[O-],"0.000891 µM [falling, full curve, poor fit]","0.000891 µM [falling, full curve, poor fit]"
CCCCC,"11.2 µM [rising, single point]","7.94 µM [rising, partial curve, poor fit]"
O=C(CC1CCCCC1)N1CCC(c2nc(-c3ccc(S(=O)(=O)N4CCCC4)cc3)no2)CC1,"22.4 µM [falling, single point]","22.4 µM [falling, single point]"
Brc1ccccc1Cn1c(-c2cncs2)nc2ccccc21,"35.5 µM [rising, single point]","35.5 µM [rising, single point]"
CCCCC(=O)N/N=C/c1c(O)n(CCc2ccc(OC)c(OC)c2)c(=O)[nH]c1=O,"0.224 µM [rising, full curve]","0.126 µM [rising, full curve, poor fit]"
CCN(CC)c1ccc(CNCCc2ccc(F)cc2)cc1,–,"0.0224 µM [falling, full curve, poor fit]"
CC(C)Nc1ccc(Nc2ccccc2)cc1,"1.26 µM [falling, partial curve]",–
O=C(Cc1ccccc1)N1CCN(Cc2c[nH]c3ccccc23)CC1,–,"35.5 µM [rising, partial curve, poor fit]"
CCN1C[C@@]2(COC)[C@H]3[C@@H](OC)[C@H]4C1[C@@]3([C@H](OC)C[C@@H]2O)[C@H]1C[C@@]2(O)[C@@H](OC(=O)c3ccccc3)[C@@H]1[C@@]4(OC(C)=O)[C@H](O)[C@@H]2OC,–,"0.0631 µM [falling, single point]"
O=C(/C=C/c1ccccc1)c1c(O)n(CCc2ccccc2)c(=O)[nH]c1=O,–,"3.98 µM [rising, full curve]"
Cc1ccc(S(=O)(=O)N2CCCC(C(=O)N3CCC4(CC3)OCCO4)C2)cc1 (stereo not drawn),–,"28.2 µM [rising, single point]"
C=CCn1c(O)c(N=Nc2c(C)n(C)n(-c3ccccc3)c2=O)c(=O)[nH]c1=S,"11.2 µM [rising, partial curve]","20 µM [rising, partial curve]"
O=C(c1cc2c(s1)-c1ccccc1OC2)N1CCC2(CC1)OCCO2,–,"12.6 µM [rising, partial curve, poor fit]"
CCCC(C)C1(CC)C(=O)NC(=S)NC1=O (stereo not drawn),"0.282 µM [rising, full curve]","0.355 µM [rising, full curve]"
O=C(OCc1cc(=O)n2nc(C3CC3)sc2n1)c1ccc(NC(=O)c2ccccc2Cl)cc1,"2.82 µM [falling, full curve, poor fit]",–
CCOC(=O)c1cc(-c2ccccc2)n(CCCC(=O)Nc2ccc(C)c(C)c2)c1C,"15.8 µM [falling, partial curve]","2 µM [falling, partial curve, poor fit]"
Cc1cccc(NC(=O)CSc2ccc(-c3ccco3)nn2)c1,–,"14.1 µM [rising, single point]"
ClC1=C(Cl)C2(Cl)C3C(Cl)C=CC3C1(Cl)C2(Cl)Cl (stereo not drawn),"22.4 µM [falling, single point]","25.1 µM [falling, single point]"
CC(=NCc1ccco1)c1c(O)n(C)c(=O)n(C)c1=O,–,"0.0562 µM [rising, full curve, poor fit]"
NC(C(=O)O)C1CC(Cl)=NO1 (stereo not drawn),–,"35.5 µM [rising, single point]"
C[C@@H]1OC(OC2C(OC3CC[C@@]4(C)C5CC=C6C7CC(C)(C)CC[C@@]7(C(=O)O)CCC6(C)C5(C)CCC4[C@]3(C)CO)OCC(O)C2O)C(O)C(O)C1O (stereo partly drawn),"25.1 µM [falling, single point]","22.4 µM [falling, single point]"
CC1CCC2(CC1)NC(=O)N(NC(=O)CCl)C2=O (stereo not drawn),–,"35.5 µM [rising, partial curve]"
Cc1ccc(-n2c(O)c(/C=C3/C(c4ccccc4)=Nc4ccccc43)c(=O)[nH]c2=O)cc1,–,"6.31 µM [rising, partial curve]"
